Data reported in article PMC5912950.
No constants are given. Whether binding was seen depends on the method and setting. In cells and extracts the contact can be indirect. Some results given as binding are weak or reduced against the parent protein; the word gives no strength.

T1: Mind Bomb-2 (MIB2), endogenous (human (endogenous in HEK293, MDA-MB-231, HT1080, 786-0)) (UniProt Q96AX9)
T1 sequence: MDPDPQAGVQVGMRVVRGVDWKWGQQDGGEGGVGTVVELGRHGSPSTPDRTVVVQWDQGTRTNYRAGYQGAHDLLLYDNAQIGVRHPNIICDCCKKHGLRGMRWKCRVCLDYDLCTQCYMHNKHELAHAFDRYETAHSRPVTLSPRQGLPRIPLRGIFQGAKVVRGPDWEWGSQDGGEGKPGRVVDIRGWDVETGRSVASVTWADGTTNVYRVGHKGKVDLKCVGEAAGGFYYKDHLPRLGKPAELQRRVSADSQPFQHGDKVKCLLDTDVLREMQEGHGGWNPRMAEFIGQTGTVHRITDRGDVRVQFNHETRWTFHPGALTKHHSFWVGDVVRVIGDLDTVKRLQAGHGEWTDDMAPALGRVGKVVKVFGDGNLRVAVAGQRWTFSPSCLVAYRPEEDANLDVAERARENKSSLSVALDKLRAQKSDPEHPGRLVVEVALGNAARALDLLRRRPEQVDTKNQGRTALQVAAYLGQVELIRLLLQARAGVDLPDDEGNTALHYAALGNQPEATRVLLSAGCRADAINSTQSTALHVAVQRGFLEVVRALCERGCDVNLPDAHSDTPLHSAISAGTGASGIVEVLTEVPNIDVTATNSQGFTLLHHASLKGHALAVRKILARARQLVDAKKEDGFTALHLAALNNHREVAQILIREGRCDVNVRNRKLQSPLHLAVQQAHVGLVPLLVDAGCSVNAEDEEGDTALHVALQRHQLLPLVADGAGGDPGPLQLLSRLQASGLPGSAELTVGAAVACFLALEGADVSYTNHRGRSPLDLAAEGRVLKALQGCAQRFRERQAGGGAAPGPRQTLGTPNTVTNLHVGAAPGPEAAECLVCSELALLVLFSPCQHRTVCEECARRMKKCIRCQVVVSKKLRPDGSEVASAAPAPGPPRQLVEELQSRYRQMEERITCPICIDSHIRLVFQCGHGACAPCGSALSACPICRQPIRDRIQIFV


Molecular target: T1, Mind Bomb-2 (MIB2), endogenous (human (endogenous in HEK293, MDA-MB-231, HT1080, 786-0))
Test: co-IP; immuno-precipitation of endogenous MIB2 with a MIB2 antibody (protein A/G agarose) from MDA-MB-231 or 786-0 cells treated with FLAG-hTNF (0.8 μg/mL) for the indicated times; western blot

binding | Binder
binds | TRADD, endogenous (protein, UniProt Q15628 1-312) MAAGQNGHEEWVGSAYLFVESSLDKVVLSDAYAHPQQKVAVYRALQAALAESGGSPDVLQMLKIHRSDPQLIVQLRFCGRQPCGRFLRAYREGALRAALQRSLAAALAQHSVPLQLELRAGAERLDALLADEERCLSCILAQQPDRLRDEELAELEDALRNLKCGSGARGGDGEVASAPLQPPVPSLSEVKPPPPPPPAQTFLFQGQPVVNRPLSLKDQQTFARSVGLKWRKVGRSLQRGCRALRDPALDSLAYEYEREGLYEQAFQLLRRFVQAEGRRATLQRLVEALEENELTSLAEDLLGLTDPNGGLA
binds | SHARPIN, endogenous (protein, UniProt Q9H0F6 1-387) MAPPAGGAAAAASDLGSAAVLLAVHAAVRPLGAGPDAEAQLRRLQLSADPERPGRFRLELLGAGPGAVNLEWPLESVSYTIRGPTQHELQPPPGGPGTLSLHFLNPQEAQRWAVLVRGATVEGQNGSKSNSPPALGPEACPVSLPSPPEASTLKGPPPEADLPRSPGNLTEREELAGSLARAIAGGDEKGAAQVAAVLAQHRVALSVQLQEACFPPGPIRLQVTLEDAASAASAASSAHVALQVHPHCTVAALQEQVFSELGFPPAVQRWVIGRCLCVPERSLASYGVRQDGDPAFLYLLSAPREAPATGPSPQHPQKMDGELGRLFPPSLGLPPGPQPAASSLPSPLQPSWSCPSCTFINAPDRPGCEMCSTQRPCTWDPLAAAST
